Data as given in article PMC5840266.
No constants are given. Whether binding was seen depends on the method and setting. In cells and extracts the contact can be indirect. Some binding calls cover weakened binding; strength is not graded here.

Amino acid sequences for entries named in this document (tags omitted).
UniProt Q9ULT8: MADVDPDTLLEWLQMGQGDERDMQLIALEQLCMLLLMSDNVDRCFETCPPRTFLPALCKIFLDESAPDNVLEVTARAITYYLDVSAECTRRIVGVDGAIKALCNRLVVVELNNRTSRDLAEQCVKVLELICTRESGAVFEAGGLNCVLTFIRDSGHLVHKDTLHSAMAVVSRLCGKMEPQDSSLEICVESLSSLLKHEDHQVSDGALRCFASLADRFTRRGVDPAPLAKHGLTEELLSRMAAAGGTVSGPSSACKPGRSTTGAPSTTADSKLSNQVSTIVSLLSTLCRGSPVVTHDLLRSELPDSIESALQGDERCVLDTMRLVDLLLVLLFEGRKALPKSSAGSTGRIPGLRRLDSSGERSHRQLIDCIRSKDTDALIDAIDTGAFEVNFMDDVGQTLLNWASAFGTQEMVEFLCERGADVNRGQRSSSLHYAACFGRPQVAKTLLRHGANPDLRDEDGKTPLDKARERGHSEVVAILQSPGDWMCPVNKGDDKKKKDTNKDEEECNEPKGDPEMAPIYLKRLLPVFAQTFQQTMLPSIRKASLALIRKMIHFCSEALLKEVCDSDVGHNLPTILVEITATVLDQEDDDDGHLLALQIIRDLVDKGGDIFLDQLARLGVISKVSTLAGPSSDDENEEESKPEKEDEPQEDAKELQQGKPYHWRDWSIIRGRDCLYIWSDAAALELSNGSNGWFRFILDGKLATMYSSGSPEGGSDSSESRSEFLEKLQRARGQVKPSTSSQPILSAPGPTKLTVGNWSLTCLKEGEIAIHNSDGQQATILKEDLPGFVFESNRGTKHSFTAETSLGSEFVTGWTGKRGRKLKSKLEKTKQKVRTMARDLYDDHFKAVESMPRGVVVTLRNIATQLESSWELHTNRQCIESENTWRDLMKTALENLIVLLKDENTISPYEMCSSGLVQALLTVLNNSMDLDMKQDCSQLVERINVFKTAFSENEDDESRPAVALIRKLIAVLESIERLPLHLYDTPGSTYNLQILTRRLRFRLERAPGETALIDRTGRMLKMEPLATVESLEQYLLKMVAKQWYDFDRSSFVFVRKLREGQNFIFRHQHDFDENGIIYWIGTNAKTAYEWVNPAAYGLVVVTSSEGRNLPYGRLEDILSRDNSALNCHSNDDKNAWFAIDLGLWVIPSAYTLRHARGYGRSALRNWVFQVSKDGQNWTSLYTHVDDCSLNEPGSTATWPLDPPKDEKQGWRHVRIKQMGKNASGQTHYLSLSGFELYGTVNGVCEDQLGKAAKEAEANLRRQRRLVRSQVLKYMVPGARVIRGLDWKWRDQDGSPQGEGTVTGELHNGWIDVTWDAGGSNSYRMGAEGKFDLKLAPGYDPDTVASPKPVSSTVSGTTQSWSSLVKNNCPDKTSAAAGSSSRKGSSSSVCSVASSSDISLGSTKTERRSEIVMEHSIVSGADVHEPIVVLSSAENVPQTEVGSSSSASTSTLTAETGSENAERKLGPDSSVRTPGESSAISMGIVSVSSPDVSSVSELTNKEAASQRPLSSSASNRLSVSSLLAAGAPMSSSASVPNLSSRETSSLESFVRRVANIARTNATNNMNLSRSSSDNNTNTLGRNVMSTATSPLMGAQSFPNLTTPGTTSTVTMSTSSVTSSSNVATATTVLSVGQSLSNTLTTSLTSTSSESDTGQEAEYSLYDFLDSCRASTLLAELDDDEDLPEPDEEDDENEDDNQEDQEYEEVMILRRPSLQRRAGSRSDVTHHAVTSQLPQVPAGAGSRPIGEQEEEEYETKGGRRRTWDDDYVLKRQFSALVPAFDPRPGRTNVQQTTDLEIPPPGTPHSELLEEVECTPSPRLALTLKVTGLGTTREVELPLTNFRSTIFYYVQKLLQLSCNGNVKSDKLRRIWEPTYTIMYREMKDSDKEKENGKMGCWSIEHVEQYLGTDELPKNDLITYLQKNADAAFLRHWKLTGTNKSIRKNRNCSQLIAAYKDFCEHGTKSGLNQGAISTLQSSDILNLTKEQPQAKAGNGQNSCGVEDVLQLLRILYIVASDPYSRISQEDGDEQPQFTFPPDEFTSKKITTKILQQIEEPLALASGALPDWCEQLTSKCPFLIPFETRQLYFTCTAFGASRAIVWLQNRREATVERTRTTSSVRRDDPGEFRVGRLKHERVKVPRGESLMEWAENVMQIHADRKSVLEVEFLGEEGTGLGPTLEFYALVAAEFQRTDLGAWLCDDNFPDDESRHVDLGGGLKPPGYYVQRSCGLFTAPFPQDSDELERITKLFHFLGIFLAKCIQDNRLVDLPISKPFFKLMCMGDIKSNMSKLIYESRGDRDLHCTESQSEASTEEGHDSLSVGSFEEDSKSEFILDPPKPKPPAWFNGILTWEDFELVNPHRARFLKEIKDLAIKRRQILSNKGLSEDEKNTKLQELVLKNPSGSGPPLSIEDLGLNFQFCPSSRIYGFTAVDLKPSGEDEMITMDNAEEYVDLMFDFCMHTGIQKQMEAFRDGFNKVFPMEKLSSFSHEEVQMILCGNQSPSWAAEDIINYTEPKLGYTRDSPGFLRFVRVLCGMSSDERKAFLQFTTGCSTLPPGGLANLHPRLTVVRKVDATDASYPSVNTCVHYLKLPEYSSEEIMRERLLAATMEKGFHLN
UniProt O43242: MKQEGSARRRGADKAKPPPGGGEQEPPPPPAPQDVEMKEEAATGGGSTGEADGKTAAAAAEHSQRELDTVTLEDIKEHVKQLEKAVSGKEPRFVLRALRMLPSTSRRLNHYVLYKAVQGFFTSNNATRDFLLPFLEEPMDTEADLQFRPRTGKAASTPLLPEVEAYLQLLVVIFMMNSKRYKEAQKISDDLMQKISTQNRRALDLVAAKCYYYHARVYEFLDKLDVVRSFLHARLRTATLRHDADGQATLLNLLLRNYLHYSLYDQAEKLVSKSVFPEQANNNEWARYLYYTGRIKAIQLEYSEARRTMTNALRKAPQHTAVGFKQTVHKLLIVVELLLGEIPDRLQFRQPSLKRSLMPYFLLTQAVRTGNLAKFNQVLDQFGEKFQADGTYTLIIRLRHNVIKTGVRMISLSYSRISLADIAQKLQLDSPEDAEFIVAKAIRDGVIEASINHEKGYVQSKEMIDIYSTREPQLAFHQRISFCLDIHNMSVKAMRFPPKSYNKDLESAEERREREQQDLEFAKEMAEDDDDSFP
UniProt O00471: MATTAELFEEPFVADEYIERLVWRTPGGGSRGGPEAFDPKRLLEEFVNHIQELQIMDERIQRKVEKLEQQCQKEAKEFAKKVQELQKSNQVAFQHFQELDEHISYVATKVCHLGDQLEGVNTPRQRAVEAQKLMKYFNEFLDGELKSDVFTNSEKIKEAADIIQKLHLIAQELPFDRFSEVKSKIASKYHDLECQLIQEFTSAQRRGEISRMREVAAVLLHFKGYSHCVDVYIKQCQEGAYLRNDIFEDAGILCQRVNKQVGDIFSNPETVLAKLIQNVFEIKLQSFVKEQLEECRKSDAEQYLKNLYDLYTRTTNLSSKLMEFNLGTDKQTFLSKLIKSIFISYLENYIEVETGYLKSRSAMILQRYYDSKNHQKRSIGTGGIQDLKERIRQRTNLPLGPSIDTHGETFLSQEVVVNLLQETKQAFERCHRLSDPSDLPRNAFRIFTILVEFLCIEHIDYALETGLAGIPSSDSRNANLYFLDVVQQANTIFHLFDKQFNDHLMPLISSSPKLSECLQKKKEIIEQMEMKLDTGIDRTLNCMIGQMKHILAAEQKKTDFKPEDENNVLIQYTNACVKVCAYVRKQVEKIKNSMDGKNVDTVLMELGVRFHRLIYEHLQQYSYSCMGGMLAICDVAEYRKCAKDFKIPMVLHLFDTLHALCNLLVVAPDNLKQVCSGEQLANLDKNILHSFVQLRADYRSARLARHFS

Experiments:
[1] = target: T1, RNF181 (human (endogenous in H9 hESCs)) (UniProt Q9P0P0); assay: co-IP; co-IP with HECTD1, RNF181 and FLAG (control) antibodies in H9 hESCs followed by western blot against EXOC5 and PSMD3
T1 sequence: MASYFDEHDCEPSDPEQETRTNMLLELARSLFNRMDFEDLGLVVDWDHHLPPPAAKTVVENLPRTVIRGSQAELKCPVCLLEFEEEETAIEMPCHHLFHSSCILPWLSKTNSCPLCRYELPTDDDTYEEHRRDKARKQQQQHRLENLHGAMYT

[2] = target: HECTD1 (human (endogenous in H9 hESCs)) (UniProt Q9ULT8); assay: as above

binding [1]	binding [2]	Substance
binds		PSMD3 (from UniProt O43242 1-534)
	binds	EXOC5 (from UniProt O00471 1-708)
